Results as given in article PMC10011603.
Results are given in words; binding and its absence hold for the method and conditions named.

By UniProt entry, the sequences of proteins in these tests, tags left out. Residues count along the entry.
UniProt P33176, residues 1-490: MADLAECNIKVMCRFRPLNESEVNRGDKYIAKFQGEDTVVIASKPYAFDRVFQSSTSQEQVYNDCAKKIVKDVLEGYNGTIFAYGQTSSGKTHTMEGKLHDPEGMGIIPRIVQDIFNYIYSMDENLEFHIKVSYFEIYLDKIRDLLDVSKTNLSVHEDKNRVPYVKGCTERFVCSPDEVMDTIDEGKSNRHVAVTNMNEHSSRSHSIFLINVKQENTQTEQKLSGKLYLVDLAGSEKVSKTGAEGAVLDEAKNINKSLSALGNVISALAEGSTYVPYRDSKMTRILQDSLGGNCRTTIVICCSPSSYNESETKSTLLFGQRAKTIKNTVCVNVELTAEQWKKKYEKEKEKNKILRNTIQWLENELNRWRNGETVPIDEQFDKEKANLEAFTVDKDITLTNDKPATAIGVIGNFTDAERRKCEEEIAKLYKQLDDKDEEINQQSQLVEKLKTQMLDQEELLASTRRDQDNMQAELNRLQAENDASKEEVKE
UniProt Q8IXI2, residues 1-592: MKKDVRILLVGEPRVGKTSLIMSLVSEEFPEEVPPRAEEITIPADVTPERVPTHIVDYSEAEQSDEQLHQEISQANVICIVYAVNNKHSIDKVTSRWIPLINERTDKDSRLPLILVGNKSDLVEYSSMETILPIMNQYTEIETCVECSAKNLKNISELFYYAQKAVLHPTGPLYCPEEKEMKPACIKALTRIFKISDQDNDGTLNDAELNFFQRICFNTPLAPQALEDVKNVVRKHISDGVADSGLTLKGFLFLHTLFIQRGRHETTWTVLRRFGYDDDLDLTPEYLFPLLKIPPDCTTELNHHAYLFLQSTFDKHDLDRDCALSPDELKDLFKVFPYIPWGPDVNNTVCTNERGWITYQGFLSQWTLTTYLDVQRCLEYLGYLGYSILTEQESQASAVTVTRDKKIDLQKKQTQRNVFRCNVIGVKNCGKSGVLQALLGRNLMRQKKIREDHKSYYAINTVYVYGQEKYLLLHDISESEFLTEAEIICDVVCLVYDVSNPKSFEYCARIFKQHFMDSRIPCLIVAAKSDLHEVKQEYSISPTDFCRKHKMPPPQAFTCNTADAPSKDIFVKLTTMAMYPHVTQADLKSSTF

What was measured:
TRAK2^1–360 (human) = target: T1, TRAK2^1–360 (human) (UniProt O60296); test: co-IP; purified proteins, 10 µg each, premixed on ice; KIF5B-GFP-SNAPf with TRAK1 1-360 or TRAK2 1-360 on GFP-Trap beads; MB buffer (30 mM HEPES, 5 mM MgSO4, 1 mM EGTA, pH 7.0) with 100 mM NaCl, 1 mg/ml BSA; 2 h on ice; with or without 10 nM MAP7; in Fig. 5b Miro1 1-592 added; both purified
T1 sequence (chain, LD555 or LD655 dye on the SNAP-tag in motility assays): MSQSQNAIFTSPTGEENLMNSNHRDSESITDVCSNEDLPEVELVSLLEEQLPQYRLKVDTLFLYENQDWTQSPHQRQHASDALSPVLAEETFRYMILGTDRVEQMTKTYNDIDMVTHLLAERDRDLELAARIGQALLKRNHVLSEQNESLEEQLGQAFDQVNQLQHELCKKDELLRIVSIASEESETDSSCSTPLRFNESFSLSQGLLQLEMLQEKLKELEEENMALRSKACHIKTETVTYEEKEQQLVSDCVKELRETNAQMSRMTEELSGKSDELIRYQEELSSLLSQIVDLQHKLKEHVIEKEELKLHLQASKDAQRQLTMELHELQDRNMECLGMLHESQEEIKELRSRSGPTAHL

KIF5B^1–490 (human) = KIF5B^1–490 (human) (UniProt P33176); test: co-IP; purified KIF5B 1-490 and Miro1 1-592-SNAPf-StrepII, 10 µg each, GFP-Trap beads, with and without 2 mM Ca2+; no TRAK, no MAP7; both purified

Miro1^1–592 (Miro1^1–592-SNAP-psc-StrepII) (from UniProt Q8IXI2 1-592) (domain or fragment)
binding (TRAK2^1–360 (human)): no binding (tested: 10 µg of each protein)
binding (KIF5B^1–490 (human)): no binding (tested: 10 µg of each protein)
